Data as given in PubChem BioAssay AID504808 (Drosophila RNAi Screening Center, 2011)
Purpose: 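Chromatin factors that keep E2F targets switched off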 (primary screen). Cell system: Drosophila S2 cells. Knock-down reagent: long dsRNA against Drosophila genes. Detection: 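Dual luciferase plate measurements; E2F-specific signal taken as firefly over Renilla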. Scale: E2F firefly: higher = more E2F reporter activity; Renilla normaliser: higher = more normaliser reporter signal. Call rule: 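a knock-down counted as active when the firefly/Renilla E2F signal rose above 50%, a threshold chosen arbitrarily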.
In all, the deposit lists about 21,000 reagents; shown is an unselected part of those with a known target gene and a result. Of all reagents, 18 (0.084%) got an active call. 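Raw counts without plate normalisation, one of two replicates; the ratio scores behind the calls were not deposited.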 Not stated in the record: the amount of reagent, the time to read-out.

nocte (no circadian temperature entrainment) [DRSC18123]
- E2F firefly, rep 1: 9458
- Renilla normaliser, rep 1: 956
- outcome: inactive

jim [DRSC11889]
- E2F firefly, rep 1: 73724
- Renilla normaliser, rep 1: 3888
- outcome: inactive

AstC-R1 (Allatostatin C receptor 1) [DRSC10799]
- E2F firefly, rep 1: 1.61e5
- Renilla normaliser, rep 1: 7421
- outcome: inactive

ND-MWFE (NADH dehydrogenase (ubiquinone) MWFE subunit) [DRSC06364]
- E2F firefly, rep 1: 1.03e5
- Renilla normaliser, rep 1: 3928
- outcome: inactive

lbm (late bloomer) [DRSC07643]
- E2F firefly, rep 1: 1.47e5
- Renilla normaliser, rep 1: 5122
- outcome: inactive

CG15576 [DRSC18064]
- E2F firefly, rep 1: 38255
- Renilla normaliser, rep 1: 3514
- outcome: inactive

AOX4 (Aldehyde oxidase 4) [DRSC15337]
- E2F firefly, rep 1: 1.12e5
- Renilla normaliser, rep 1: 5964
- outcome: inactive

Reformatted: results already given.
lbm (late bloomer) [DRSC07643] → E2F firefly, rep 1: 1.47e5; Renilla normaliser, rep 1: 5122; outcome: inactive
CG15576 [DRSC18064] → E2F firefly, rep 1: 38255; Renilla normaliser, rep 1: 3514; outcome: inactive

Further results follow:
CG6209 [DRSC06968]
- E2F firefly, rep 1: 1.01e5
- Renilla normaliser, rep 1: 4364
- outcome: inactive

CG5280 [DRSC10498]
- E2F firefly, rep 1: 1.01e5
- Renilla normaliser, rep 1: 4447
- outcome: inactive

LeuRS-m (Leucyl-tRNA synthetase, mitochondrial) [DRSC08595]
- E2F firefly, rep 1: 74130
- Renilla normaliser, rep 1: 3612
- outcome: inactive

Cyp12a5 (Cytochrome P450 12a5) [DRSC16621]
- E2F firefly, rep 1: 1.51e5
- Renilla normaliser, rep 1: 7796
- outcome: inactive

CG12914 [DRSC06229]
- E2F firefly, rep 1: 1.31e5
- Renilla normaliser, rep 1: 5019
- outcome: inactive
